Reference: publication PMC8645903
Results are given in words; binding and its absence hold for the method and conditions named. In cells and extracts the contact can be indirect. Some entries that bind do so weakly or less than the wild type.

Amino acid sequences for entries named in this document (tags omitted).
UniProt Q16665: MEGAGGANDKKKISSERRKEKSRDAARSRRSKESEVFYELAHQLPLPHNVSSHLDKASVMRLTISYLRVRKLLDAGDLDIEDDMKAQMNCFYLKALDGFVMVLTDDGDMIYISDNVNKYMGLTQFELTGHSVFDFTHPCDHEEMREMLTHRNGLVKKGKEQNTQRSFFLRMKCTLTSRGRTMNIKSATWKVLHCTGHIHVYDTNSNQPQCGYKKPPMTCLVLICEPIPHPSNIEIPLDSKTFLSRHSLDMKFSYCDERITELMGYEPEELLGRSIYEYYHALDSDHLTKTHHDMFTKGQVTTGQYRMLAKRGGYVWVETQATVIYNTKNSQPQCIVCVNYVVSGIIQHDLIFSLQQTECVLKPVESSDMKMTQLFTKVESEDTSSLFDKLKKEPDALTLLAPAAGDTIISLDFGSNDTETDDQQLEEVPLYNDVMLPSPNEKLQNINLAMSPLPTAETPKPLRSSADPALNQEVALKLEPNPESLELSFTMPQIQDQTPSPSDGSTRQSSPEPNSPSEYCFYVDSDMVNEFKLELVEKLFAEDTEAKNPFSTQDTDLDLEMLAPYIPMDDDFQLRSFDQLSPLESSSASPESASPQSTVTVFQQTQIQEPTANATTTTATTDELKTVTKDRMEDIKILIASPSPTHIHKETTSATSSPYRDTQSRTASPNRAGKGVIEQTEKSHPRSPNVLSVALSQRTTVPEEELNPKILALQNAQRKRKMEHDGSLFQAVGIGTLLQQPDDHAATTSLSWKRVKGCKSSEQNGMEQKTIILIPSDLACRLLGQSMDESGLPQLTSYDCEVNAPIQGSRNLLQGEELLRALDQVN

Target: hypoxia-inducible factor-1α (human (endogenous in BxPC-3/PANC-1)) (UniProt Q16665)
Assay: co-IP; lysates of BxPC-3/PANC-1 cells (Figure 5E legend: BxPC-3/SW1990) under hypoxia for 24 h, transfected with siNC or siZEB1-AS1, with or without ZEB1-OE; immunoprecipitation with anti-HIF-1α or anti-ZEB1 overnight at 4°C, Protein A/G PLUS-Agarose, Western blot

B1: zinc finger E-box-binding homeobox 1 (protein, UniProt P37275 1-1124)
chain: MADGPRCKRRKQANPRRNNVTNYNTVVETNSDSDDEDKLHIVEEESVTDAADCEGVPEDDLPTDQTVLPGRSSEREGNAKNCWEDDRKEGQEILGPEAQADEAGCTVKDDECESDAENEQNHDPNVEEFLQQQDTAVIFPEAPEEDQRQGTPEASGHDENGTPDAFSQLLTCPYCDRGYKRFTSLKEHIKYRHEKNEDNFSCSLCSYTFAYRTQLERHMTSHKSGRDQRHVTQSGCNRKFKCTECGKAFKYKHHLKEHLRIHSGEKPYECPNCKKRFSHSGSYSSHISSKKCISLIPVNGRPRTGLKTSQCSSPSLSASPGSPTRPQIRQKIENKPLQEQLSVNQIKTEPVDYEFKPIVVASGINCSTPLQNGVFTGGGPLQATSSPQGMVQAVVLPTVGLVSPISINLSDIQNVLKVAVDGNVIRQVLENNQANLASKEQETINASPIQQGGHSVISAISLPLVDQDGTTKIIINYSLEQPSQLQVVPQNLKKENPVATNSCKSEKLPEDLTVKSEKDKSFEGGVNDSTCLLCDDCPGDINALPELKHYDLKQPTQPPPLPAAEAEKPESSVSSATGDGNLSPSQPPLKNLLSLLKAYYALNAQPSAEELSKIADSVNLPLDVVKKWFEKMQAGQISVQSSEPSSPEPGKVNIPAKNNDQPQSANANEPQDSTVNLQSPLKMTNSPVLPVGSTTNGSRSSTPSPSPLNLSSSRNTQGYLYTAEGAQEEPQVEPLDLSLPKQQGELLERSTITSVYQNSVYSVQEEPLNLSCAKKEPQKDSCVTDSEPVVNVIPPSANPINIAIPTVTAQLPTIVAIADQNSVPCLRALAANKQTILIPQVAYTYSTTVSPAVQEPPLKVIQPNGNQDERQDTSSEGVSNVEDQNDSDSTPPKKKMRKTENGMYACDLCDKIFQKSSSLLRHKYEHTGKRPHECGICKKAFKHKHHLIEHMRLHSGEKPYQCDKCGKRFSHSGSYSQHMNHRYSYCKREAEERDSTEQEEAGPEILSNEHVGARASPSQGDSDERESLTREEDEDSEKEEEEEDKEMEELQEEKECEKPQGDEEEEEEEEEVEEEEVEEAENEGEEAKTEGLMKDDRAESQASSLGQKVGESSEQVSEEKTNEA
binding: binds
